Measurements reported in publication PMC2847535.
Results are given in words; binding and its absence hold for the method and conditions named. Binding seen in cells or lysates may run through a third protein. Some binding calls cover weakened binding; strength is not graded here. Where a sequence is shown, tags or fusion partners need not be part of it.

The chains behind the UniProt entries cited, without tags or fusion partners.
UniProt Q9NQT4: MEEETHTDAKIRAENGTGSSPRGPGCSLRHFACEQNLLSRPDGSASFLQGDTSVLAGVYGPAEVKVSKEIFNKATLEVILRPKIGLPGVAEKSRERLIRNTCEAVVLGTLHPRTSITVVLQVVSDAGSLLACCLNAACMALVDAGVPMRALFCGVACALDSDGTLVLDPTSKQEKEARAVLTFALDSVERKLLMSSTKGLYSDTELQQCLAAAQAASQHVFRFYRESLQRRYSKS

Biological target: endogenous exosome component Rrp46 (human (endogenous in 293TRex)) (UniProt Q9NQT4)
Assay: co-IP; endogenous Rrp46 immunoprecipitated with rabbit anti-hRrp46p and proteinG plus-agarose from lysates of cells expressing myc-tagged ZAP proteins; lysis buffer B (30 mM Hepes pH7.6, 100 mM NaCl, 0.5% NP-40) with 100 ug/ml RNase A; 4°C, 2 h; Western blot with anti-myc; pre-immune serum as control

Binder | binding
myc-tagged full-length ZAP mutant Zm63 (protein, UniProt Q8K3Y6 1-776) MADPGVCCFITKILCAHGGRMTLEELLGEIRLPEAQLYELLETAGPDRFVLLETGGQAGITRAAAATTRARVCRRKYCQRPCDSLHLCKLNLLGRCHYAQSQRNLCKYSHDVLSEQNFQILKNHELSGLNQEELACLLVQSDPFFLPEICKSYKGEGRKQTCGQPQPCERLHICEHFTRGNCSYLNCLRSHNLMDRKVLTIMREHGLSPDVVQNIQDICNNKHARRNPPGTRAAHPHRRGGAHRDRSKSRDRFLHNSLEFLSPVVSPLGSGPPSPDVTSCKDSLEDVSVDVTQKFKYLGTHDRAQLSPVSSKAAGVQGPSQMRASQEFSEDGNLDDIFSRNRSDSSSSRASAAKVAQRNEAVAMKMGMEVKGKKEAPDIDRVPFLNSYIDGVTMEKASVSGIPGKKFTANDLENLLLLNDTWKNVAKPQDLQTTGRITDSGQDKAFLQNKYGGNPVWASASTHNAPNGSSQIMDETPNVSKSSTSGFAIKPAIAGGKEAVYSGVQSPRSQVLAVPGEATTPVQSNRLPQSPLSSSSHRAAASGSPGKNSTHTSVSPAIESSRMTSDPDEYLLRYILNPLFRMDNHGPKEICQDHLYKGCQQSHCDRSHFHLPYRWQMFVYTTWRDFQDMESIEQAYCDPHVELILIENHQINFQKMTCDSYPIRRLSTPSYEEKPLSAVFATKWIWYWKNEFNEYIQYGNESPGHTSSDINSAYLESFFQSCPRGVLPFQAGSQKYELSFQGMIQTNIASKTQRHVVRRPVFVSSNDVEQKRRGPE | binds
myc-tagged full-length ZAP mutant Zm153 (protein, UniProt Q8K3Y6 1-776) MADPGVCCFITKILCAHGGRMTLEELLGEIRLPEAQLYELLETAGPDRFVLLETGGQAGITRSVVATTRARVCRRKYCQRPCDSLHLCKLNLLGRCHYAQSQRNLCKYSHDVLSEQNFQILKNHELSGLNQEELACLLVQSDPFFLPEICKSAAAEGRKQTCGQPQPCERLHICEHFTRGNCSYLNCLRSHNLMDRKVLTIMREHGLSPDVVQNIQDICNNKHARRNPPGTRAAHPHRRGGAHRDRSKSRDRFLHNSLEFLSPVVSPLGSGPPSPDVTSCKDSLEDVSVDVTQKFKYLGTHDRAQLSPVSSKAAGVQGPSQMRASQEFSEDGNLDDIFSRNRSDSSSSRASAAKVAQRNEAVAMKMGMEVKGKKEAPDIDRVPFLNSYIDGVTMEKASVSGIPGKKFTANDLENLLLLNDTWKNVAKPQDLQTTGRITDSGQDKAFLQNKYGGNPVWASASTHNAPNGSSQIMDETPNVSKSSTSGFAIKPAIAGGKEAVYSGVQSPRSQVLAVPGEATTPVQSNRLPQSPLSSSSHRAAASGSPGKNSTHTSVSPAIESSRMTSDPDEYLLRYILNPLFRMDNHGPKEICQDHLYKGCQQSHCDRSHFHLPYRWQMFVYTTWRDFQDMESIEQAYCDPHVELILIENHQINFQKMTCDSYPIRRLSTPSYEEKPLSAVFATKWIWYWKNEFNEYIQYGNESPGHTSSDINSAYLESFFQSCPRGVLPFQAGSQKYELSFQGMIQTNIASKTQRHVVRRPVFVSSNDVEQKRRGPE | binds
myc-tagged full-length ZAP (wild type) (protein, UniProt Q8K3Y6 1-776) MADPGVCCFITKILCAHGGRMTLEELLGEIRLPEAQLYELLETAGPDRFVLLETGGQAGITRSVVATTRARVCRRKYCQRPCDSLHLCKLNLLGRCHYAQSQRNLCKYSHDVLSEQNFQILKNHELSGLNQEELACLLVQSDPFFLPEICKSYKGEGRKQTCGQPQPCERLHICEHFTRGNCSYLNCLRSHNLMDRKVLTIMREHGLSPDVVQNIQDICNNKHARRNPPGTRAAHPHRRGGAHRDRSKSRDRFLHNSLEFLSPVVSPLGSGPPSPDVTSCKDSLEDVSVDVTQKFKYLGTHDRAQLSPVSSKAAGVQGPSQMRASQEFSEDGNLDDIFSRNRSDSSSSRASAAKVAQRNEAVAMKMGMEVKGKKEAPDIDRVPFLNSYIDGVTMEKASVSGIPGKKFTANDLENLLLLNDTWKNVAKPQDLQTTGRITDSGQDKAFLQNKYGGNPVWASASTHNAPNGSSQIMDETPNVSKSSTSGFAIKPAIAGGKEAVYSGVQSPRSQVLAVPGEATTPVQSNRLPQSPLSSSSHRAAASGSPGKNSTHTSVSPAIESSRMTSDPDEYLLRYILNPLFRMDNHGPKEICQDHLYKGCQQSHCDRSHFHLPYRWQMFVYTTWRDFQDMESIEQAYCDPHVELILIENHQINFQKMTCDSYPIRRLSTPSYEEKPLSAVFATKWIWYWKNEFNEYIQYGNESPGHTSSDINSAYLESFFQSCPRGVLPFQAGSQKYELSFQGMIQTNIASKTQRHVVRRPVFVSSNDVEQKRRGPE | binds
myc-tagged full-length ZAP mutant Zm103 (protein, UniProt Q8K3Y6 1-776) MADPGVCCFITKILCAHGGRMTLEELLGEIRLPEAQLYELLETAGPDRFVLLETGGQAGITRSVVATTRARVCRRKYCQRPCDSLHLCKLNLLGRCHYAQSQAAACKYSHDVLSEQNFQILKNHELSGLNQEELACLLVQSDPFFLPEICKSYKGEGRKQTCGQPQPCERLHICEHFTRGNCSYLNCLRSHNLMDRKVLTIMREHGLSPDVVQNIQDICNNKHARRNPPGTRAAHPHRRGGAHRDRSKSRDRFLHNSLEFLSPVVSPLGSGPPSPDVTSCKDSLEDVSVDVTQKFKYLGTHDRAQLSPVSSKAAGVQGPSQMRASQEFSEDGNLDDIFSRNRSDSSSSRASAAKVAQRNEAVAMKMGMEVKGKKEAPDIDRVPFLNSYIDGVTMEKASVSGIPGKKFTANDLENLLLLNDTWKNVAKPQDLQTTGRITDSGQDKAFLQNKYGGNPVWASASTHNAPNGSSQIMDETPNVSKSSTSGFAIKPAIAGGKEAVYSGVQSPRSQVLAVPGEATTPVQSNRLPQSPLSSSSHRAAASGSPGKNSTHTSVSPAIESSRMTSDPDEYLLRYILNPLFRMDNHGPKEICQDHLYKGCQQSHCDRSHFHLPYRWQMFVYTTWRDFQDMESIEQAYCDPHVELILIENHQINFQKMTCDSYPIRRLSTPSYEEKPLSAVFATKWIWYWKNEFNEYIQYGNESPGHTSSDINSAYLESFFQSCPRGVLPFQAGSQKYELSFQGMIQTNIASKTQRHVVRRPVFVSSNDVEQKRRGPE | binds

Continued, values first:

binding | Binder
binds | myc-tagged full-length ZAP mutant Zm3 (protein, UniProt Q8K3Y6 1-776) MAAAAVCCFITKILCAHGGRMTLEELLGEIRLPEAQLYELLETAGPDRFVLLETGGQAGITRSVVATTRARVCRRKYCQRPCDSLHLCKLNLLGRCHYAQSQRNLCKYSHDVLSEQNFQILKNHELSGLNQEELACLLVQSDPFFLPEICKSYKGEGRKQTCGQPQPCERLHICEHFTRGNCSYLNCLRSHNLMDRKVLTIMREHGLSPDVVQNIQDICNNKHARRNPPGTRAAHPHRRGGAHRDRSKSRDRFLHNSLEFLSPVVSPLGSGPPSPDVTSCKDSLEDVSVDVTQKFKYLGTHDRAQLSPVSSKAAGVQGPSQMRASQEFSEDGNLDDIFSRNRSDSSSSRASAAKVAQRNEAVAMKMGMEVKGKKEAPDIDRVPFLNSYIDGVTMEKASVSGIPGKKFTANDLENLLLLNDTWKNVAKPQDLQTTGRITDSGQDKAFLQNKYGGNPVWASASTHNAPNGSSQIMDETPNVSKSSTSGFAIKPAIAGGKEAVYSGVQSPRSQVLAVPGEATTPVQSNRLPQSPLSSSSHRAAASGSPGKNSTHTSVSPAIESSRMTSDPDEYLLRYILNPLFRMDNHGPKEICQDHLYKGCQQSHCDRSHFHLPYRWQMFVYTTWRDFQDMESIEQAYCDPHVELILIENHQINFQKMTCDSYPIRRLSTPSYEEKPLSAVFATKWIWYWKNEFNEYIQYGNESPGHTSSDINSAYLESFFQSCPRGVLPFQAGSQKYELSFQGMIQTNIASKTQRHVVRRPVFVSSNDVEQKRRGPE
binds | myc-tagged full-length ZAP mutant Zm93 (protein, UniProt Q8K3Y6 1-776) MADPGVCCFITKILCAHGGRMTLEELLGEIRLPEAQLYELLETAGPDRFVLLETGGQAGITRSVVATTRARVCRRKYCQRPCDSLHLCKLNLAAACHYAQSQRNLCKYSHDVLSEQNFQILKNHELSGLNQEELACLLVQSDPFFLPEICKSYKGEGRKQTCGQPQPCERLHICEHFTRGNCSYLNCLRSHNLMDRKVLTIMREHGLSPDVVQNIQDICNNKHARRNPPGTRAAHPHRRGGAHRDRSKSRDRFLHNSLEFLSPVVSPLGSGPPSPDVTSCKDSLEDVSVDVTQKFKYLGTHDRAQLSPVSSKAAGVQGPSQMRASQEFSEDGNLDDIFSRNRSDSSSSRASAAKVAQRNEAVAMKMGMEVKGKKEAPDIDRVPFLNSYIDGVTMEKASVSGIPGKKFTANDLENLLLLNDTWKNVAKPQDLQTTGRITDSGQDKAFLQNKYGGNPVWASASTHNAPNGSSQIMDETPNVSKSSTSGFAIKPAIAGGKEAVYSGVQSPRSQVLAVPGEATTPVQSNRLPQSPLSSSSHRAAASGSPGKNSTHTSVSPAIESSRMTSDPDEYLLRYILNPLFRMDNHGPKEICQDHLYKGCQQSHCDRSHFHLPYRWQMFVYTTWRDFQDMESIEQAYCDPHVELILIENHQINFQKMTCDSYPIRRLSTPSYEEKPLSAVFATKWIWYWKNEFNEYIQYGNESPGHTSSDINSAYLESFFQSCPRGVLPFQAGSQKYELSFQGMIQTNIASKTQRHVVRRPVFVSSNDVEQKRRGPE
binds | myc-tagged full-length ZAP mutant Zm13 (protein, UniProt Q8K3Y6 1-776) MADPGVCCFITKAAAAHGGRMTLEELLGEIRLPEAQLYELLETAGPDRFVLLETGGQAGITRSVVATTRARVCRRKYCQRPCDSLHLCKLNLLGRCHYAQSQRNLCKYSHDVLSEQNFQILKNHELSGLNQEELACLLVQSDPFFLPEICKSYKGEGRKQTCGQPQPCERLHICEHFTRGNCSYLNCLRSHNLMDRKVLTIMREHGLSPDVVQNIQDICNNKHARRNPPGTRAAHPHRRGGAHRDRSKSRDRFLHNSLEFLSPVVSPLGSGPPSPDVTSCKDSLEDVSVDVTQKFKYLGTHDRAQLSPVSSKAAGVQGPSQMRASQEFSEDGNLDDIFSRNRSDSSSSRASAAKVAQRNEAVAMKMGMEVKGKKEAPDIDRVPFLNSYIDGVTMEKASVSGIPGKKFTANDLENLLLLNDTWKNVAKPQDLQTTGRITDSGQDKAFLQNKYGGNPVWASASTHNAPNGSSQIMDETPNVSKSSTSGFAIKPAIAGGKEAVYSGVQSPRSQVLAVPGEATTPVQSNRLPQSPLSSSSHRAAASGSPGKNSTHTSVSPAIESSRMTSDPDEYLLRYILNPLFRMDNHGPKEICQDHLYKGCQQSHCDRSHFHLPYRWQMFVYTTWRDFQDMESIEQAYCDPHVELILIENHQINFQKMTCDSYPIRRLSTPSYEEKPLSAVFATKWIWYWKNEFNEYIQYGNESPGHTSSDINSAYLESFFQSCPRGVLPFQAGSQKYELSFQGMIQTNIASKTQRHVVRRPVFVSSNDVEQKRRGPE
